Measurements reported in the supplement of paper PMC8728848.
This is one part of the list.

Experiments:
Assay in all cases: glycan array binding signal (z-score within array); higher = stronger binding
Conditions in all cases: glycan notation: IUPAC condensed, linker removed
[1] = target: GlcNAc(b1-3)Gal(b1-4)GlcNAc(b1-3)Gal(b1-4)GlcNAc(b1-2)Man(a1-3)[GlcNAc(b1-3)Gal(b1-4)GlcNAc(b1-3)Gal(b1-4)GlcNAc(b1-2)Man(a1-6)]Man(b1-4)GlcNAc(b1-4)[Fuc(a1-6)]GlcNAc
How it was run: (§1)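 Glycan array data were curated from 3228 arrays in the Consortium for Functional Glycomics database and kept only where the protein sequence was available. Glycan names were converted to IUPAC-condensed notation, and columns mapping to the same glycan were averaged. The binding signal is a within-array Z-score, averaged across arrays of the same protein sequence at different concentrations or buffers and across linkers. Negative Z-scores can be read as non-binding.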

[2] = target: GlcNAc(b1-3)Gal(b1-4)GlcNAc(b1-3)Gal(b1-4)GlcNAc(b1-2)[GlcNAc(b1-3)Gal(b1-4)GlcNAc(b1-3)Gal(b1-4)GlcNAc(b1-6)]Man(a1-6)[GlcNAc(b1-3)Gal(b1-4)GlcNAc(b1-3)Gal(b1-4)GlcNAc(b1-2)Man(a1-3)]Man(b1-4)GlcNAc(b1-4)[Fuc(a1-6)]GlcNAc
How it was run: as §1

[3] = target: GlcNAc(b1-3)Gal(b1-4)GlcNAc(b1-3)Gal(b1-4)GlcNAc(b1-3)Gal(b1-4)GlcNAc(b1-2)Man(a1-3)[GlcNAc(b1-3)Gal(b1-4)GlcNAc(b1-3)Gal(b1-4)GlcNAc(b1-3)Gal(b1-4)GlcNAc(b1-2)Man(a1-6)]Man(b1-4)GlcNAc(b1-4)GlcNAc
How it was run: as §1

[4] = target: GlcNAc(b1-3)Gal(b1-4)GlcNAc(b1-3)Gal(b1-4)GlcNAc(b1-3)Gal(b1-4)GlcNAc(b1-2)Man(a1-3)[GlcNAc(b1-3)Gal(b1-4)GlcNAc(b1-3)Gal(b1-4)GlcNAc(b1-3)Gal(b1-4)GlcNAc(b1-2)Man(a1-6)]Man(b1-4)GlcNAc(b1-4)[Fuc(a1-6)]GlcNAc
How it was run: as §1

[5] = target: GlcNAc(b1-3)Gal(b1-4)GlcNAc(b1-3)Gal(b1-4)GlcNAc(b1-3)Gal(b1-4)GlcNAc(b1-2)[GlcNAc(b1-3)Gal(b1-4)GlcNAc(b1-3)Gal(b1-4)GlcNAc(b1-3)Gal(b1-4)GlcNAc(b1-6)]Man(a1-6)[GlcNAc(b1-3)Gal(b1-4)GlcNAc(b1-3)Gal(b1-4)GlcNAc(b1-3)Gal(b1-4)GlcNAc(b1-2)Man(a1-3)]Man(b1-4)GlcNAc(b1-4)[Fuc(a1-6)]GlcNAc
How it was run: as §1

[6] = target: GlcNAc(b1-3)Gal(b1-4)GlcNAc(b1-3)Gal(b1-4)GlcNAc(b1-3)Gal(b1-4)GlcNAc(b1-3)Gal(b1-4)GlcNAc(b1-2)Man(a1-3)[GlcNAc(b1-3)Gal(b1-4)GlcNAc(b1-3)Gal(b1-4)GlcNAc(b1-3)Gal(b1-4)GlcNAc(b1-3)Gal(b1-4)GlcNAc(b1-2)Man(a1-6)]Man(b1-4)GlcNAc(b1-4)GlcNAc
How it was run: as §1

[7] = target: GlcNAc(b1-3)Gal(b1-4)GlcNAc(b1-3)Gal(b1-4)GlcNAc(b1-3)Gal(b1-4)GlcNAc(b1-3)Gal(b1-4)GlcNAc(b1-2)Man(a1-3)[GlcNAc(b1-3)Gal(b1-4)GlcNAc(b1-3)Gal(b1-4)GlcNAc(b1-3)Gal(b1-4)GlcNAc(b1-3)Gal(b1-4)GlcNAc(b1-2)Man(a1-6)]Man(b1-4)GlcNAc(b1-4)[Fuc(a1-6)]GlcNAc
How it was run: as §1

[8] = target: GlcNAc(b1-3)Gal(b1-4)GlcNAc(b1-3)Gal(b1-4)GlcNAc(b1-3)Gal(b1-4)GlcNAc(b1-3)Gal(b1-4)GlcNAc(b1-2)[GlcNAc(b1-3)Gal(b1-4)GlcNAc(b1-3)Gal(b1-4)GlcNAc(b1-3)Gal(b1-4)GlcNAc(b1-3)Gal(b1-4)GlcNAc(b1-6)]Man(a1-6)[GlcNAc(b1-3)Gal(b1-4)GlcNAc(b1-3)Gal(b1-4)GlcNAc(b1-3)Gal(b1-4)GlcNAc(b1-3)Gal(b1-4)GlcNAc(b1-2)Man(a1-3)]Man(b1-4)GlcNAc(b1-4)[Fuc(a1-6)]GlcNAc
How it was run: as §1

[9] = target: GlcNAc(b1-3)Gal(b1-4)GlcNAc(b1-3)Gal(b1-4)GlcNAc(b1-3)GalNAc
How it was run: as §1

[10] = target: GlcNAc(b1-3)Gal(b1-4)GlcNAc(b1-3)GalNAc
How it was run: as §1

[11] = target: GlcNAc(b1-3)Gal(b1-4)GlcNAc(b1-3)[GlcNAc(b1-3)Gal(b1-4)GlcNAc(b1-3)]GalNAc
How it was run: as §1

[12] = target: GlcNAc(b1-3)Gal(b1-4)GlcNAc(b1-6)[Gal(b1-3)]GalNAc
How it was run: as §1

[13] = target: GlcNAc(b1-3)Gal(b1-4)GlcNAc(b1-6)[GlcNAc(b1-3)Gal(b1-3)]GalNAc
How it was run: as §1

[14] = target: GlcNAc(b1-3)Gal(b1-4)GlcNAc(b1-6)[GlcNAc(b1-3)]Gal(b1-4)GlcNAc
How it was run: as §1

GlcNAc(b1-3)GalNAc = target: GlcNAc(b1-3)GalNAc
How it was run: as §1

GlcNAc(b1-3)Man = target: GlcNAc(b1-3)Man
How it was run: as §1

[15] = target: GlcNAc(b1-3)[GlcNAc(b1-4)][GlcNAc(b1-6)]GlcNAc
How it was run: as §1

[16] = target: GlcNAc(b1-3)[GlcNAc(b1-6)]Gal(b1-4)GlcNAc
How it was run: as §1

[17] = target: GlcNAc(b1-3)[GlcNAc(b1-6)]GalNAc
How it was run: as §1

[18] = target: GlcNAc(b1-4)Gal(b1-4)GlcNAc
How it was run: as §1

GlcNAc(b1-4)GlcNAc = target: GlcNAc(b1-4)GlcNAc
How it was run: as §1

[19] = target: GlcNAc(b1-4)GlcNAc(b1-4)GlcNAc
How it was run: as §1

[20] = target: GlcNAc(b1-4)GlcNAc(b1-4)GlcNAc(b1-4)GlcNAc(b1-4)GlcNAc
How it was run: as §1

[21] = target: GlcNAc(b1-4)GlcNAc(b1-4)GlcNAc(b1-4)GlcNAc(b1-4)GlcNAc(b1-4)GlcNAc
How it was run: as §1

[22] = target: GlcNAc(b1-4)[GlcNAc(b1-6)]GalNAc
How it was run: as §1

[23] = target: GlcNAc(b1-6)Gal(b1-4)GlcNAc
How it was run: as §1

GlcNAc(b1-6)GalNAc = target: GlcNAc(b1-6)GalNAc
How it was run: as §1

[24] = target: GlcNAc6S(b1-3)Gal(b1-4)GlcNAc
How it was run: as §1

Kdn(a2-3)Gal(b1-3)GalNAc = target: Kdn(a2-3)Gal(b1-3)GalNAc
How it was run: as §1

Kdn(a2-3)Gal(b1-3)GlcNAc = target: Kdn(a2-3)Gal(b1-3)GlcNAc
How it was run: as §1

Kdn(a2-3)Gal(b1-4)Glc = target: Kdn(a2-3)Gal(b1-4)Glc
How it was run: as §1

Kdn(a2-3)Gal(b1-4)GlcNAc = target: Kdn(a2-3)Gal(b1-4)GlcNAc
How it was run: as §1

[25] = target: Kdn(a2-3)Gal(b1-4)[Fuc(a1-3)]GlcNAc
How it was run: as §1

Kdn(a2-6)Gal(b1-4)GlcNAc = target: Kdn(a2-6)Gal(b1-4)GlcNAc
How it was run: as §1

[26] = target: Man(a1-2)Man(a1-2)Man(a1-3)Man
How it was run: as §1

[27] = target: Man(a1-2)Man(a1-2)Man(a1-6)[Man(a1-3)]Man
How it was run: as §1

Man(a1-2)Man(a1-3)Man = target: Man(a1-2)Man(a1-3)Man
How it was run: as §1

[28] = target: Man(a1-2)Man(a1-3)[Man(a1-2)Man(a1-6)]Man
How it was run: as §1

B1: Clec18Av1 (Homo sapiens), A5D8T8 (protein)
chain: MLHPETSPGRGHLLAVLLALLGTAWAEVWPPQLQEQAPMAGALNRKESFLLLSLHNRLRSWVQPPAADMRRLDWSDSLAQLAQARAALCGTPTPSLASGLWRTLQVGWNMQLLPAGLVSFVEVVSLWFAEGQRYSHAAGECARNATCTHYTQLVWATSSQLGCGRHLCSAGQAAIEAFVCAYSPRGNWEVNGKTIVPYKKGAWCSLCTASVSGCFKAWDHAGGLCEVPRNPCRMSCQNHGRLNISTCHCHCPPGYTGRYCQVRCSLQCVHGRFREEECSCVCDIGYGGAQCATKVHFPFHTCDLRIDGDCFMVSSEADTYYRARMKCQRKGGVLAQIKSQKVQDILAFYLGRLETTNEVIDSDFETRNFWIGLTYKTAKDSFRWATGEHQAFTSFAFGQPDNHGFGNCVELQASAAFNWNDQRCKTRNRYICQFAQEHISRWGPGS
[1]
  glycan array binding signal (z-score): -0.74
[2]
  glycan array binding signal (z-score): -0.075
[3]
  glycan array binding signal (z-score): 1.23
[4]
  glycan array binding signal (z-score): 1.17
[5]
  glycan array binding signal (z-score): -0.715
[6]
  glycan array binding signal (z-score): -0.769
[7]
  glycan array binding signal (z-score): -0.077
[8]
  glycan array binding signal (z-score): 2.69
[9]
  glycan array binding signal (z-score): -0.551
[10]
  glycan array binding signal (z-score): -0.797
[11]
  glycan array binding signal (z-score): 0.596
[12]
  glycan array binding signal (z-score): -0.033
[13]
  glycan array binding signal (z-score): -0.805
[14]
  glycan array binding signal (z-score): -0.865
GlcNAc(b1-3)GalNAc
  glycan array binding signal (z-score): -0.475
GlcNAc(b1-3)Man
  glycan array binding signal (z-score): -0.013
[15]
  glycan array binding signal (z-score): -0.811
[16]
  glycan array binding signal (z-score): -0.503
[17]
  glycan array binding signal (z-score): -0.808
[18]
  glycan array binding signal (z-score): -0.845
GlcNAc(b1-4)GlcNAc
  glycan array binding signal (z-score): -0.326
[19]
  glycan array binding signal (z-score): -0.82
[20]
  glycan array binding signal (z-score): -0.866
[21]
  glycan array binding signal (z-score): -0.556
[22]
  glycan array binding signal (z-score): -0.241
[23]
  glycan array binding signal (z-score): 1.6
GlcNAc(b1-6)GalNAc
  glycan array binding signal (z-score): -0.158
[24]
  glycan array binding signal (z-score): 1.53
Kdn(a2-3)Gal(b1-3)GalNAc
  glycan array binding signal (z-score): -0.238
Kdn(a2-3)Gal(b1-3)GlcNAc
  glycan array binding signal (z-score): -0.701
Kdn(a2-3)Gal(b1-4)Glc
  glycan array binding signal (z-score): -0.816
Kdn(a2-3)Gal(b1-4)GlcNAc
  glycan array binding signal (z-score): 0.233
[25]
  glycan array binding signal (z-score): 0.16
Kdn(a2-6)Gal(b1-4)GlcNAc
  glycan array binding signal (z-score): 2.58
[26]
  glycan array binding signal (z-score): -0.848
[27]
  glycan array binding signal (z-score): -0.856
Man(a1-2)Man(a1-3)Man
  glycan array binding signal (z-score): -0.573
[28]
  glycan array binding signal (z-score): -0.859
